{
  "source": "patent US20180338899A1",
  "about": "“INHIBITORS FOR METHYLATION-RELATED ENZYMES HAT1 AND KAT8” (priority 2015, published 2018)",
  "origin": "cited, not measured here",
  "conditions": "interview form of commercially available medicine; cited from earlier work",
  "data": [
    {"smiles": "C[N+]1(C)CCC(OC(=O)C(O)(c2ccccc2)C2CCCC2)C1", "note": "(stereo not shown) [glycopyrrolate]", "values": [
      {"measurement": "maximum effective blood concentration (Cmax)", "value": 0.04, "unit": "µg/mL"}
    ]}
  ]
}
